From paper PMC8536713 come the findings set out here.

No constants are given. Whether binding was seen depends on the method and setting. In cells and extracts the contact can be indirect. Here binding means that the protein was enriched with, or labelled near, the bait; the list need not be complete.

B1: Rlp7 (protein, UniProt P40693 1-322)
chain: MSSTQDSKAQTLNSNPEILLRKRRNADRTRIERQELAKKKREEQIKKKRSNKNKFVRAESIVAKTLATSREKERIKRVSILEDKKAKNETQHIASGKDFILKITEKANGAEENSVDLEETEEEEDDGLIREKTTYDGKPALLFIVRVRGPLAVNIPNKAFKILSLLRLVETNTGVFVKLTKNVYPLLKVIAPYVVIGKPSLSSIRSLIQKRGRIIYKGENEAEPHEIVLNDNNIVEEQLGDHGIICVEDIIHEIATMGESFSVCNFFLQPFKLNREVSGFGSLNRLRKIKQREAESRTRQFSNAATAPVIEVDIDSLLAKLN
B2: Npa2 (protein, UniProt P47108 1-1174)
chain: MGDLTEELSIPDNAQDLSKLLRSTSTKPHQIAEIVSKFDKLETYFPKKEIFVLDLLIDRLNNGNLDDFKTSEHTWIIFTRLLDAINDPISIKKLLKKLKTVPVMIRTFFLWPKDKLLTRSVSFIKAFFAINDYLIVNFSVEESFQLLEHAINGLSSCPTTDFALSYLQDACNLTHVDNITTTDNKIATCYCKHMLLPSLRYFAQTKNSASSNQSFIRLSHFMGKFLLQPRIDYMKLNKKFVQENASEITDDMAYYYFATFVTFLSKDNFAQLEVIFTILGAKKPSLECRFLNLLSESKKTVSQEFLEALLLEMLASTDESGVLSLIPIILKLDIEVAIKHIFRLLELIQLENLNDPLFSSHIWDLIIQSHANARELSDFFAKINEYCSRKGPDSYFLINHPAYVKSITKQLFTLSSLQWKNLLQALLDQVNHDSTNRVPLYLIRICLEGLSEGASRATLDEVKPILSQVFTLESFNNSLQWDLKYHIMEVYDDIVPAEELEKIDYVLSSNIFDTTSADVEELFFYCFKLREYISFDLSDAKKKFMRHFEILDEERKSNLSYSVVSKFATLVNNNFTREQISSLIDSLLLNSTNLSSLLKNDDIFEETNITYALINKLASSYHQTFALEALIQIPIQCINKNVRVALINNLTCESFCLDSATRECLLHLLSSPTFKSNIETNFYELCEKTIMSPEMAISETGDEKKEIEDKISIFEKVWTNHLSQAKEPVSEKFLESGYDIVKQSMSLSNGDSKLIIAGFTIAKFLKPDNKHRDIQGMAISYAVKILENYSENFESETIPLFRISMSTLYKIITTGQGDISKHKSRILDIFSKIMLRYHSKKVYHAPEEQEMFLVHSLLTENKLEYIFAEYLNIEHTDKCDSALGFCLEESLKQGPDAFNRLLWNSAKSFSTISQPCAEKFVRVFIIMSKRIARDNNLGHHLFVIALLEAYTYCDIEKFGYKSYLLLFNAIKEFLVSKPWLFSQYCIEMLLPFCLKTLAFIVNHESTDEINEGFINIIEVIDHMLLVHRFKFSNRHHLFNSVLCQILEIIAIHDGTLCANSADAVARLITNYCEPYNVSNAQNGQKNNLSSKISLIKQSIRKNVLVVLTKYIQLSITTQFSLNIKKSLQPGIHAIFDILSQNELNQLNAFLDTPGKQYFKALYLQYKKVGKWRED
B3: Dbp9 (enzyme, UniProt Q06218 1-594)
chain: MSYEKKSVEGAYIDDSTTFEAFHLDSRLLQAIKNIGFQYPTLIQSHAIPLALQQKRDIIAKAATGSGKTLAYLIPVIETILEYKKTIDNGEENGTLGIILVPTRELAQQVYNVLEKLVLYCSKDIRTLNISSDMSDSVLSTLLMDQPEIIVGTPGKLLDLLQTKINSISLNELKFLVVDEVDLVLTFGYQDDLNKIGEYLPLKKNLQTFLMSATLNDDIQALKQKFCRSPAILKFNDEEINKNQNKLLQYYVKVSEFDKFLLCYVIFKLNLIKGKTLIFVNNIDRGYRLKLVMEQFGIKSCILNSELPVNSRQHIVDQFNKNVYQLLIATDDTEYIKEEDDEIEEGHNTENQEEKSLEGEPENDKKPSKKKKVQVKKDKEYGVSRGVDFKNVACVLNFDLPTTAKSYVHRVGRTARGGKTGTAISFVVPLKEFGKHKPSMLQTAKKDERILSRIIKQQSKLGLELQPYKFDQKQVEAFRYRMEDGFRAVTQVAIREARVKELKQELLASEKLKRHFEENPKELQSLRHDKELHPARVQQHLKRVPDYLLPESARGNGTKVKFVPFHNAKKRHSHKKGRVSKPKNGKVDPLKNFK
B4: Nop15 (protein, UniProt P53927 1-220)
chain: MVKSTSKTSTKETVTKQPTEEKPIQEKEELALETSSSSSDEEDEKDEDEIEGLAASDDEQSGTHKIKRLNPKKQANEKKSKDKKTLEEYSGIIYVSRLPHGFHEKELSKYFAQFGDLKEVRLARNKKTGNSRHYGFLEFVNKEDAMIAQESMNNYLLMGHLLQVRVLPKGAKIEKLYKYKKRVLVEKGITKPVKQLKDNMKQKHEERIKKLAKSGIEFKW
B5: Rsa3 (protein, UniProt Q05942 1-220)
chain: MSAGDISAINIKSVKKNRRRKKRRTADVSSSDSSSSDPSSESEKEEIQNGAIEEHVGENGKSDHVFSKGNDEDKQEDIAIEVSDVELTDEESKDLKLNSKEVIDDLTKISLSKIPEPTKSQNKEGFMNASKIAENIKLAREEYNELAENFVPKGKDKTKLREEYLNLLFENYGDDINRLRAAPDFTNKSLSILADALQEGIGMFDIGELELVLKNKEMEN
B6: Nop8 (protein, UniProt Q08287 1-484)
chain: MDSVIQKRIFVGNIFHNADDCYSELLDRFGKFGDCQDFQFEKHNHFAFIDIRFNDEADFNKLRKSFNNVKFKGNILKVDEAKPNWESTWAVQHAKDLKEDIILNAKMKKKNWQHYKKMENVAKSWKDHKEVIAGRMREAPRKRSQLRNITFRINVNGSLKVYKCYKTKLWGYERNKELNDLVYKFTNNFWKNGYNHIVDRLDYSRAVKTVRFKNGLKQLTVSKDENVCSGEMDSDENMSEEEKEKNNVILNDLLKDFDFDKPMTLNDSDEELLTEQRKGEEEEEEEEEKEVNAPEYENVNKTKDQSTLPQEKPEERKEQDEGDGQEDNEFIPTFTKEIGQGTISNTETLRNLFNPNEAEPVSQFKLIEDSDNDIDHAKDVDVNQLEEEVSKSSDTLGLTSAPVPHVSRDKDNKNFLFFPHLQSPFLVGQTQLSKVRAPGRETMLSNWDEEFWANRGNWTRDMRRKMKDALKHRKRKQSKSGLLL
B7: Dbp6 (enzyme, UniProt P53734 1-629)
chain: MFASRFDPSQLTAPAASAPEGIVGTTPPAIVPLKRQATESDNEEYGSHQDSDESSNSSSEEDEDRMQVDYGASEEDSSEVEEEESKPSTHSTVLSRFKQTVSLQERLGASDIAESKEDEGIEDEAASTHQLKQIPQPEFVKNPMNLNTNSLQFKSTGWLNTEKIYYDNSLIKPFSDYANELEAKLLQNICKNFSTNTFPIQSIILDSILPVLNFTLNVSKRNFTRRIGDILVNAATGSGKTLAYSIPIVQTLFKRQINRLRCIIIVPTKLLINQVYTTLTKLTQGTSLIVSIAKLENSLKDEHKKLSNLEPDILITTPGRLVDHLNMKSINLKNLKFLIIDEADRLLNQSFQGWCPKLMSHLKTDKLDTLPGNVIKMIFSATLTTNTEKLNGLNLYKPKLFLKQTDKLYQLPNKLNEFNINIPTAKSVYKPLILLYSICQFMAHSPIAAKILIFVKSNESSIRLSKLLQLICESRSQSSVLKNLQNLAVSINSVNSNNSKAENKKIVANFSHHSESAGITILITTDIMSRGIDINDITQVINYDPPMSSQQYVHRVGRTARANELGSAYNLLVGRGERTFFDDLNKDLDRDGKSVQPLELDFTLLESDSELYTSSLESLKNYHNNTAQA
B8: Cic1 (protein, UniProt P38779 1-376)
chain: MAKKSNSKKSTPVSTPSKEKKKVIEKKSSTAIPRERVIKAVNELIKFTSKPQDENNEEGNNGKKNLLEDDEEELKKDLQLIVVNNKSFTGTSKSFKLKLLNVKHSFYKPWKEASATAVKDFKVLLILKDSDIKKVSEDDLFDQLDSEGIKVDEIICGKDLKTVYKAYEARNAFISQFSLILADDSIVTSLPKLMGGKAYNKVETTPISIRTHANKEFSLTTLTNNIKKVYMNQLPVKLPRGTTLNVHLGNLEWLRPEEFVDNVELISEQLIKAYQIRSIFIKTNRSPVLPLYYNQDVLDELEAKKDKIEETHEDDMVTIDGVQVHLSTFNKGLMEIANPSELGSIFSKQINNAKKRSSSELEKESSESEAVKKAKS

In the experiment the target is T1, Nop2-TAP (S. cerevisiae) (UniProt P40991).
T1 sequence: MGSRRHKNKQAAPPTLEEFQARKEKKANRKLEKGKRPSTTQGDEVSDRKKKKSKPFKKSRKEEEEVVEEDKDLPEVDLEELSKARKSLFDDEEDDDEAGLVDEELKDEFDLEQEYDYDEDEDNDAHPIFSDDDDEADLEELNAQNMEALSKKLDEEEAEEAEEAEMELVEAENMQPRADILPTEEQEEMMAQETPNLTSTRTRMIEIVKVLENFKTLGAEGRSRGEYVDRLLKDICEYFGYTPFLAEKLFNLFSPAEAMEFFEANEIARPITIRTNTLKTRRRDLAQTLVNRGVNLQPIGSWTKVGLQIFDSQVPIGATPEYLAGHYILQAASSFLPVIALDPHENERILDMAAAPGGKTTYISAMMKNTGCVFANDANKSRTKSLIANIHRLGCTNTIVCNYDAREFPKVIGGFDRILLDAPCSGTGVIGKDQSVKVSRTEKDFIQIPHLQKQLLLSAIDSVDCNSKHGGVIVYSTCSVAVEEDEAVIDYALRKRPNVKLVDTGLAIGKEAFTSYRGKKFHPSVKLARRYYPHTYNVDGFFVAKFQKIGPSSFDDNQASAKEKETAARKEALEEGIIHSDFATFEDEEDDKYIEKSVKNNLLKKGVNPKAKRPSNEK
Briefly: affinity purification with mass spectrometry; Nop2-TAP particles isolated from whole-cell lysate of wild-type and Δdbp7 cells on IgG sepharose, eluted by overnight TEV cleavage; MS, two biological replicates.
On to B1, for which the binding entry is “binds”. The same measure for B2: “binds”. Turning to B3, the binding result is on record as “binds”. Take B4: the binding result is recorded as “binds”. The same measure for B5: “binds”. The result for B6 reads “binds”; that for B7, “binds”; that for B8, “binds”.
